# Literature values in US5208244A, “Method of selectively inhibiting calcium-independent myocardial phospholipase A2” (priority 1990, dated 1993).
# At least one compound was matched to its structure with a doubt left.
# Test system: ischemic cat heart
# Conditions: ischemic cat heart in vivo; cited from earlier work
compound,measurement,value
"O=C(O)C1(CCCCCc2ccc(Cl)cc2)CO1 (centres unmarked) [POCA, 2-[5-(4-chlorophenyl)-pentyl]-oxirane-2-carboxylate]",accumulation of lysophospholipids (and long-chain acylcarnitines),inhibits the accumulation of lysophospholipids
same,ventricular fibrillation and ventricular tachycardia,prevents the onset of ventricular fibrillation and ventricular tachycardia
